Measurements taken from patent US5359047.
At least one result comes from cells or an extract, where the contact may be indirect. No signal at the amounts used counts as a negative.

Chains of the proteins cited; added tags and fusions are not shown. Residues count along the entry.
UniProt Q08945, 2-709: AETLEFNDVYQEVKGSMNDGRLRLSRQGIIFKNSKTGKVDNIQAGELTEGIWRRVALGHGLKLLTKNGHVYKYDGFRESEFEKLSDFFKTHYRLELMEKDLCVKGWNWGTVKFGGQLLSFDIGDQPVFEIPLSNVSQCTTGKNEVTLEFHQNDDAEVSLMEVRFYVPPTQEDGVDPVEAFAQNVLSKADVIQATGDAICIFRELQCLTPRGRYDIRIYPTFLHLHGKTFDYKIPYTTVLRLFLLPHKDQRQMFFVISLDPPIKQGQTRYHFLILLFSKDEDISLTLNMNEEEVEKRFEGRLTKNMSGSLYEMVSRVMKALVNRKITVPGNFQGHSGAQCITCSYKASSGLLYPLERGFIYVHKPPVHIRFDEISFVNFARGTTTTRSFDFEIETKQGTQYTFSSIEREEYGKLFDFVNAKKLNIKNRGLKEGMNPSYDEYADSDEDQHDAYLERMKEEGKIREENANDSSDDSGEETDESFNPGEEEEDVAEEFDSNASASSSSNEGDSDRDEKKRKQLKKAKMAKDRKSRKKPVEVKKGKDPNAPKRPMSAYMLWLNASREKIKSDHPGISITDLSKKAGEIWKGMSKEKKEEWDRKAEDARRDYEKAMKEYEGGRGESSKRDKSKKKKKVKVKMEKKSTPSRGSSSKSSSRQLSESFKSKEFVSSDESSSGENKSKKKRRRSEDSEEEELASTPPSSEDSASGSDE

Biological target: cis-DDP structure-specific recognition protein (SSRP), cellular (Homo sapiens) (UniProt Q08945)
Assay: EMSA
Conditions: protein in an extract, label: 5'-32P bottom strand, variant of 110 bp ligated cis-d(GpG) oligo, only the site is given

| Sequence | binding result (cis-DDP 1,2-intrastrand d(GpG), 88 and 110 bp bound, 44 and 66 bp not bound) | binding result (nonspecific binding only) |
| --- | --- | --- |
| TCTCCTTCTTGGTTCTCTTCTC (double strand) [44 or 66 bp ligated cis-d(GpG) oligo] | no binding |  |
| TCTCCTTCTTGGTTCTCTTCTC (double strand) [110 bp ligated unmodified oligo] |  | no binding |
